Measurements reported in the supplement of paper PMC10849652.
The list shows a part of the results.

Sequences of proteins named here, by UniProt entry; tags and fusion partners are left off. A change or cut given only in a name is not applied to a line headed by its entry.
UniProt Q6P1M0: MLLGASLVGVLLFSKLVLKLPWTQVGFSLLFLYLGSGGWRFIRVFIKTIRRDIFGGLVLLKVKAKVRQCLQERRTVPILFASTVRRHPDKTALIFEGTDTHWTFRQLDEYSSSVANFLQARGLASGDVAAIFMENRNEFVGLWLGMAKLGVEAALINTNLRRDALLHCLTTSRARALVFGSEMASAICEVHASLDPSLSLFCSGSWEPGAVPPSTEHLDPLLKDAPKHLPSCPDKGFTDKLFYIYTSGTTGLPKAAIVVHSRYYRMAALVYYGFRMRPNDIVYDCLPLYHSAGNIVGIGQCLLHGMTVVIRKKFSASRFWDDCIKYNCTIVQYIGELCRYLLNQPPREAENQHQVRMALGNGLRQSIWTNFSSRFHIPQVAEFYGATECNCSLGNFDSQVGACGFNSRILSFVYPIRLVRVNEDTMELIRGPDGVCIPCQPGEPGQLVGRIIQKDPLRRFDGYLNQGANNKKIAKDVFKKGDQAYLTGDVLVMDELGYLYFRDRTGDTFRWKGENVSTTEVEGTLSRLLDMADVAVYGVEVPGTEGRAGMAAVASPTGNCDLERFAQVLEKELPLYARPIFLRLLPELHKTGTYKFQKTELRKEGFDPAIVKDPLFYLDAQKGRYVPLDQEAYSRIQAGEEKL
UniProt Q8N357: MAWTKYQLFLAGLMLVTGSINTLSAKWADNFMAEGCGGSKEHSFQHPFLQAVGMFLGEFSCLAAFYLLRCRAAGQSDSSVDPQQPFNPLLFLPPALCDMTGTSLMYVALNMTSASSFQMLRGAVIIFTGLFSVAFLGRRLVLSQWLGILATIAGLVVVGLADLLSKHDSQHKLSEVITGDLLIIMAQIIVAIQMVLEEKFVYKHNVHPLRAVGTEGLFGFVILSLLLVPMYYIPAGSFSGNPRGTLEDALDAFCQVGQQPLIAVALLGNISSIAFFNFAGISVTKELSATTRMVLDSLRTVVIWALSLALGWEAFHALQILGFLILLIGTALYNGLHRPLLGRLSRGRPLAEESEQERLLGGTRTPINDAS
UniProt Q96A29: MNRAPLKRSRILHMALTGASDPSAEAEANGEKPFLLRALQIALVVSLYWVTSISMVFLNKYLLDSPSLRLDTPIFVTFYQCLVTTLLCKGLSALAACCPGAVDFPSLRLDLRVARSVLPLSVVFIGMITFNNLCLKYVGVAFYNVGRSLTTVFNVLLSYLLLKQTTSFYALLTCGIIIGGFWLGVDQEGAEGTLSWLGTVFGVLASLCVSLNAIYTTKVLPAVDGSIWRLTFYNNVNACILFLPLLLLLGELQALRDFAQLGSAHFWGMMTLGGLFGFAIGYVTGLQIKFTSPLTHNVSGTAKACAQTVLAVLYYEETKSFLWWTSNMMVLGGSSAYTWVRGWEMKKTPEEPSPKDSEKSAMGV
UniProt Q8TAD4: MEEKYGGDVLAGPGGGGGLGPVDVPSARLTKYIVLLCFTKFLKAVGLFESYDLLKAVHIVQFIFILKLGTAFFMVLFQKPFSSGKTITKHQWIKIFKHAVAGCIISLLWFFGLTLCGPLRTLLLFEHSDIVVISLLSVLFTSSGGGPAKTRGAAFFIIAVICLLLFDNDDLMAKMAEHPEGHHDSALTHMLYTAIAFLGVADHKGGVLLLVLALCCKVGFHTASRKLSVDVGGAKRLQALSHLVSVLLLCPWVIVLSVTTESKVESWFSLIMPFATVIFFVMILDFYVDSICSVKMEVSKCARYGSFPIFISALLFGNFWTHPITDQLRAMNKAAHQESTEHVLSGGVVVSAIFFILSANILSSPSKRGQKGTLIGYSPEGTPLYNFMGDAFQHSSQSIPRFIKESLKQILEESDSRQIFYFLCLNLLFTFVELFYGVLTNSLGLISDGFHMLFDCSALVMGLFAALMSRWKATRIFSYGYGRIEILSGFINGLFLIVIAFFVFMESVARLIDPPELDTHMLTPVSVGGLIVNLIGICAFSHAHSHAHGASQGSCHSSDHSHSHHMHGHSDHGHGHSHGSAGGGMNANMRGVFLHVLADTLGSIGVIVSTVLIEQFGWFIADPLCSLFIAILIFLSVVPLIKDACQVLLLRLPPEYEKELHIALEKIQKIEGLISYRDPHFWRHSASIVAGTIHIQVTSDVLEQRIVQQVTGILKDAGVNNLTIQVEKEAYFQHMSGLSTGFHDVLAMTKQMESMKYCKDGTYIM
UniProt Q9NYZ2: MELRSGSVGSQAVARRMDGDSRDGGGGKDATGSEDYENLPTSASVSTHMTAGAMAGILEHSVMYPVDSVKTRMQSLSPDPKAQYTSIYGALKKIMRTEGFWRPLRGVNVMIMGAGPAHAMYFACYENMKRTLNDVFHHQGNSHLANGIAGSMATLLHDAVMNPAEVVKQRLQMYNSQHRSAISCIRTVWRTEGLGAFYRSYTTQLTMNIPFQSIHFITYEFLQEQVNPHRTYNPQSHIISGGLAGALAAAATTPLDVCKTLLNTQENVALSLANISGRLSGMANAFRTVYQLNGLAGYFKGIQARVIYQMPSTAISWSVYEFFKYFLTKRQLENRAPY
UniProt Q96H78: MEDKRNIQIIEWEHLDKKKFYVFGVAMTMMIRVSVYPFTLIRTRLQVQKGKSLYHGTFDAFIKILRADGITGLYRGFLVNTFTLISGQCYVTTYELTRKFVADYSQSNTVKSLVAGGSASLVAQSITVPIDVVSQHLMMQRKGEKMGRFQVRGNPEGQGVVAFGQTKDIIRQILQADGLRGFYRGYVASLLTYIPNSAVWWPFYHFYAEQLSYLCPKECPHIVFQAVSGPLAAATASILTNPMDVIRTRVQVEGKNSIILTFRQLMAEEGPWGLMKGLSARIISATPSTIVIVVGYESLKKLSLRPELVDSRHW
UniProt Q8IXU6: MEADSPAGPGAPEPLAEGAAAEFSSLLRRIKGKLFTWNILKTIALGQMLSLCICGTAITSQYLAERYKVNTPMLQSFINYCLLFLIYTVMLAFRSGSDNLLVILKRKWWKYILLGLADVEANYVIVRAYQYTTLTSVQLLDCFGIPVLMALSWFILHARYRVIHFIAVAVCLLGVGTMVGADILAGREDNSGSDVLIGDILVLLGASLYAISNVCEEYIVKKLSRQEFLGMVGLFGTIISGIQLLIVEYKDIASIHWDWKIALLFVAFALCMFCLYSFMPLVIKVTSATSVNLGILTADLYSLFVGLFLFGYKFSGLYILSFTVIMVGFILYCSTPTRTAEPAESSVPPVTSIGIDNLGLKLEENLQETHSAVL
UniProt O75387: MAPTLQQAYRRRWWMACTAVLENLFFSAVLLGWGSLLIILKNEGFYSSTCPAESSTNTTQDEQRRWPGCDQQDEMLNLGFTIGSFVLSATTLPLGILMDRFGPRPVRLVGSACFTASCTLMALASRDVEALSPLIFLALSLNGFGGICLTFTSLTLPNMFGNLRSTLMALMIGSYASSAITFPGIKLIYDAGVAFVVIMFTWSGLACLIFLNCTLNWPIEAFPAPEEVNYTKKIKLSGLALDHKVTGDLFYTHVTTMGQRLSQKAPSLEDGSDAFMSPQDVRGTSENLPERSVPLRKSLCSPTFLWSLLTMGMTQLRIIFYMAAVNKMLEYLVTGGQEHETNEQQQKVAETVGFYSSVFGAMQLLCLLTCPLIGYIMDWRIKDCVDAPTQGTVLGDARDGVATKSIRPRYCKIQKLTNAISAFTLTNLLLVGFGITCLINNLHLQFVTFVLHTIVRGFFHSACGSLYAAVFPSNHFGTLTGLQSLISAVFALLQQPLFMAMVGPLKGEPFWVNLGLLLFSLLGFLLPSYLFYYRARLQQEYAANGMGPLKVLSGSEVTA
UniProt Q13485: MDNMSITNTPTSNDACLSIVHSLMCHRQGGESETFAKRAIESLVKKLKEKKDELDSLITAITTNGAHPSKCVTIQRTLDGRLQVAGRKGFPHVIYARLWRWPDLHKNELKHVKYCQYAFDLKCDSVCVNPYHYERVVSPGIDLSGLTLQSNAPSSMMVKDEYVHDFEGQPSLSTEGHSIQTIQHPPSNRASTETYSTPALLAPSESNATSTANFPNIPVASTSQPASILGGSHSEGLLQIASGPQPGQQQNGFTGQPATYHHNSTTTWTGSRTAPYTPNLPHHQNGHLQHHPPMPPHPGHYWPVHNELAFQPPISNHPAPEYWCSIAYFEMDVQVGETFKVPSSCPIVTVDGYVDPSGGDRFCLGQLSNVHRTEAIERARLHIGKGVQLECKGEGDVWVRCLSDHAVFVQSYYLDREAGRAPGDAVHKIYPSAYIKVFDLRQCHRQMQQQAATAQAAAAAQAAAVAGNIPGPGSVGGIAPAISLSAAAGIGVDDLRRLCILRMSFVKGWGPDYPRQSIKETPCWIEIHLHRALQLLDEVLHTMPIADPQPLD

Tests used:
Assay in all cases: log2 fold change, soluble protein after heating vs DMSO (PISA); higher = thermal stabilisation; K562 lysate, 10 uM; active = over 0.2 and 3.5 SD of the protein, either way, in both replicates (recomputed)
[1] = compound: C1=CC=C(C=C1)[C@H](COC2=CC3=C(C=C2)NC(=O)N3)NC(=O)C4=CC=CN(C4=O)CC5=CC(=C(C=C5)F)F
Outline: (§1)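 K562 pellets were dounce-homogenised in PBS pH 7.4 containing 1 mM MgCl2, and the crude extract, at 1 mg/mL protein, was exposed to 10 μM compound for 30 min. Aliquots were heated for 3 min across 48°C-58°C, pooled, brought to 0.5% NP-40 at 4°C and spun at 21,000xg for 90 min, with the supernatant taken as soluble protein. TMTpro 16plex LC-MS/MS with equalised channel sums quantified that protein. Values are log-two fold changes in thermal stability relative to solvent controls, taken from duplicates.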

[2] = compound: CC1=C(SC2=C1C(=N[C@H](C3=NN=C(N32)C)CC(=O)N)C4=CC=C(C=C4)Cl)C
Outline: as §1

[3] = compound: CC1=C2C(=CC=C1)N=C(N(C2=O)C3=CC=CC=C3C)CN4C=NC5=C(N=CN=C54)N
Outline: as §1

[4] = compound: Cc1sc2c(c1C)C(c1ccc(Cl)cc1)=N[C@@H](CC(=O)OC(C)(C)C)c1nnc(C)n1-2
Outline: as §1

[5] = compound: c1ccc([C@@H]2C[C@H]2NC2CCNCC2)cc1
Outline: as §1

Measured: log2 fold change

SLC27A4 (UniProt Q6P1M0)
inactive: [1] 0.106 | [2] -0.006 | [3] 0.054 | [4] -0.002 | [5] 0.121

SLC35F6 (UniProt Q8N357)
inactive: [1] 0.018 | [2] -0.04 | [3] -0.049 | [4] -0.018 | [5] 0.077

SLC35C1 (UniProt Q96A29)
inactive: [1] -0.223 | [2] 0.107 | [3] 0.047

SLC30A5 (UniProt Q8TAD4)
inactive: [1] -0.001 | [2] 0.036 | [3] -0.019 | [4] -0.026 | [5] -0.153

SLC25A37 (UniProt Q9NYZ2)
inactive: [1] -0.036 | [2] 0.027 | [3] -0.036 | [4] -0.053 | [5] -0.043

SLC25A44 (UniProt Q96H78)
inactive: [1] 0.042 | [2] -0.044 | [3] -0.014 | [4] -0.004 | [5] -0.17

SLC35F2 (UniProt Q8IXU6)
inactive: [1] 0.114 | [2] 0.057 | [3] -0.02 | [4] -0.1 | [5] -0.104

SLC43A1 (UniProt O75387)
inactive: [1] 0.012 | [2] 0.012 | [3] -0.064 | [4] 0.061 | [5] -0.046

SMAD4 (UniProt Q13485)
inactive: [1] 0.05 | [2] -0.019 | [3] 0.077 | [4] -0.008 | [5] 0.006
